Binding data for 3 molecules are collected here from article PMC12320502.

Amino acid sequences for entries named in this document (tags omitted). Residues count along the entry.
UniProt P11021, residues 19-654: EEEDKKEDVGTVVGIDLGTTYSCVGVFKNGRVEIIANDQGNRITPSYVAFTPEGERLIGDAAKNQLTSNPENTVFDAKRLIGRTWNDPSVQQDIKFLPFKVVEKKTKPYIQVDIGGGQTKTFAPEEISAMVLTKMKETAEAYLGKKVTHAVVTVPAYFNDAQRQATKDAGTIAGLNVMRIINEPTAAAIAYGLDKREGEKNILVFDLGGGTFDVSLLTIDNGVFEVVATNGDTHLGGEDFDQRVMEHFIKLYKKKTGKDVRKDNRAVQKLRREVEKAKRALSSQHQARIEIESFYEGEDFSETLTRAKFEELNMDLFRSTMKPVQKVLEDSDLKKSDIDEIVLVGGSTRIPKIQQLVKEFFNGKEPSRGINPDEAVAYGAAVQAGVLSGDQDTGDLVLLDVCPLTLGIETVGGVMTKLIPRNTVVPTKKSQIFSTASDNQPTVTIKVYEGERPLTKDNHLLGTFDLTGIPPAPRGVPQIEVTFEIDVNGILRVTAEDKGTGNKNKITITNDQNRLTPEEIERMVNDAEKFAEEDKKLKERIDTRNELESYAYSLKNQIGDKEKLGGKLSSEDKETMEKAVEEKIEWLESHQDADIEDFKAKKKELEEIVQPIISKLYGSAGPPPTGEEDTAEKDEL

The target in test [1] is T1, SBSPON tagged with 3×Flag (pcDNA3.1-3×Flag-SBSPON) (human) (UniProt Q8IVN8).
T1 sequence (chain, N-glycosylation at Asn227): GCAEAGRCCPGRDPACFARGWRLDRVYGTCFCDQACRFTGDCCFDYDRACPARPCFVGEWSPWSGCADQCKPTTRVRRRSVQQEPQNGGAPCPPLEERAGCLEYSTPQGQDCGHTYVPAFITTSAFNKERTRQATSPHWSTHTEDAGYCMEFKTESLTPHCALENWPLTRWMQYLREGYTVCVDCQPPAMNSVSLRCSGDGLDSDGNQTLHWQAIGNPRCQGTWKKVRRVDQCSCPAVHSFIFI
Briefly: co-IP; cell lysates immunoprecipitated with anti-Flag (SBSPON) or anti-Myc (HSPA5) antibodies, then immunoblotting; NP-40 lysates, protein A/G agarose beads. (In general: Immunoblotting shows a protein as a band on a membrane.)

The target of test [2] is T2, SBSPON-3×Flag (Somatomedin B and Thrombospondin Type 1 Domain Containing), stably overexpressed by lentivirus (human) (UniProt Q8IVN8).
T2 sequence (chain, N-glycosylation at Asn227): T1 sequence (chain, N-glycosylation at Asn227)
Briefly: co-IP; bladder cancer cells untreated or exposed to DDP or TM (ER stress); the interaction is enhanced under stress; the method is not named for this panel.

In test [3] the target is HSPA5 tagged with Myc (pcDNA3.1) (UniProt P11021). Briefly: co-IP; cell lysates immunoprecipitated with anti-Flag (SBSPON) or anti-Myc (HSPA5) antibodies, then immunoblotting; NP-40 lysates, protein A/G agarose beads.

These are yes or no findings as the source states them, for the method shown. In cells and extracts the contact can be indirect. Some entries that bind do so weakly or less than the wild type. Tags and fused reporters may be left off the sequences shown.

Consider “HSPA5 tagged with Myc (pcDNA3.1) (from UniProt P11021 19-654)”, for which, in test [1], the binding entry is reported as “binds”. For the molecule “HSPA5, endogenous in bladder cancer cells (from UniProt P11021 19-654)”, the binding result in test [2] is given as “binds”.

B1: SBSPON tagged with 3×Flag (pcDNA3.1-3×Flag-SBSPON) (protein, UniProt Q8IVN8 21-264)
chain: T1 sequence (chain, N-glycosylation at Asn227)
modifications: N-glycosylation at Asn227
For B1, the binding entry in test [3] is recorded as “binds”.
